We go through 38 compounds from PubChem BioAssay AID493014 (National Center for Advancing Translational Sciences (NCATS), 2011).

The assay can be described thus: qHTS Assay to Find Inhibitors of Chronic Active B-Cell Receptor Signaling. The conditions noted are these: ABC-DLBCL IkBa-CBG/CBR reporter, luminescence ratio (green luciferase fused to IkBa over red control in TMD8 lymphoma cells), 4 h. The method in brief:
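Doxycycline induced both beetle luciferases in TMD8 lymphoma cells; IKK-driven degradation limits the IkappaBalpha-fused green signal, while red luminescence normalises for cell number and nonspecific effects. Compounds tested up to 46 uM, 4 hrs.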
In general terms: In qHTS, concentration-response curves come from the screen itself.

The mark [1] stands for this setting: measured here: CBR red luminescence, cell number.
[2] abbreviates: measured here: IkBa-CBG green luminescence.

Several values for one entry are separate records, joined by “and”; a condition that tells them apart may be missing. Identical values can stand only once. This is one part of the list. The main result of the screen is listed elsewhere. These columns were measured beside it and carry no call. Most of these compounds were active or inconclusive in the main read-out, so they are no random draw. The note in brackets gives the kind of curve behind each potency; many fits are weak.

Consider `O=C(NCc1ccccc1)c1ccc(CS(=O)(=O)c2ccccc2)o1`, for which the half-maximal activity concentration (AC50) reads like this: under setting [1], 6.51 µM [falling, single point]; under setting [2], 3.26 µM [rising, partial curve, poor fit]. As for `CCOc1ccc(/C=N/n2c(C3CCCCC3)n[nH]c2=S)cc1`, the concentration at half-maximal activity (AC50) under setting [1] was 0.794 µM [rising, full curve, poor fit]. On to `OCCN1CCN(Cc2cc(Cl)c3cccnc3c2O)CC1`, for which the AC50 was 2.06 µM [falling, single point] under setting [1] and 20.6 µM [falling, single point] under setting [2]. On to `FCCCOc1ccc(-c2nccc(-c3ccccn3)n2)cc1`, for which the AC50 under setting [1] is 0.224 µM [rising, full curve, poor fit]. Take `Cc1ccc(-c2cn(C[C@H]3CC[C@@H]([C@@H]4CC[C@H](Cn5cc(-c6ccc(C)cc6)nn5)O4)O3)nn2)cc1`: the AC50 under setting [1] was 0.2 µM [falling, full curve, poor fit]. Still for that read-out and setting: with `Cc1ccc(-c2cc(C(F)F)nc(NCC3CCCO3)n2)cc1` (configuration not stated) the figure was 7.31 µM [rising, partial curve, poor fit].

As for `COc1ccc(CCN2CN(S(=O)(=O)c3ccccc3)c3nc4ccccc4nc32)cc1`, the AC50 under setting [1] is 29.1 µM [falling, single point]. The same measure, in the same setting: the figure for `COc1cc(C(=O)OCC(=O)Nc2ccc(C)cc2)cc(OC)c1OC` is 17.8 µM [falling, single point]; for `Cc1cc(C(=O)Nc2sc3c(c2C#N)CCCC3)no1` it is 29.1 µM [falling, single point]. With `CCCCCc1nnc(NC(=O)Cc2cccs2)s1`, the AC50 under setting [1] was 8.2 µM [rising, partial curve].

`O=C(Nc1cccnc1)c1cn(-c2ccccc2)nc1-c1cccs1`: under setting [1], the concentration at half-maximal activity (AC50) is 4.47 µM [falling, partial curve, poor fit]. Same read-out and setting: with `NS(=O)(=O)c1ccc(Nc2nc(-c3ccc(O)cc3)cs2)cc1` the figure was 0.92 µM [falling, full curve, poor fit]. As for `COc1cc(C(=O)NC2(C(F)(F)F)NC(=O)N(CCCc3ccccc3)C2=O)cc(OC)c1OC` (configuration not stated), the AC50 under setting [1] was 2.31 µM [rising, full curve]. Same read-out and setting: the figure for `Brc1ccccc1-c1nnc(SCc2nc3ccccc3s2)o1` is 4.11 µM [rising, partial curve, poor fit]; for `Cc1noc(C)c1COC(=O)CCc1ccc(S(=O)(=O)N2CCCCC2)cc1` it is 0.1 µM [falling, full curve]. On the same count and under the same terms, the figure for `O=C(NC1CCCCC1)c1ccc2c(c1)N(Cc1cccc(Cl)c1)C(=O)c1ccccc1S2=O` (configuration not stated) is 0.794 µM [rising, full curve, poor fit]. `CCc1cc(C(=O)N2CCCC(CNS(=O)(=O)c3cccs3)C2)n(C)n1` (configuration not stated): the AC50 under setting [1] was 5.62 µM [rising, single point]. As to `CCOC(=O)C1(Cc2ccccc2C)CCCN(C(=O)c2ccc(COC)o2)C1` (configuration not stated), the concentration at half-maximal activity (AC50) under setting [1] is 28.2 µM [falling, single point]. Same read-out and setting: with `Cc1ccc(C(N)=O)cc1S(=O)(=O)Nc1cccc(C)c1C` the figure was 0.00461 µM [falling, full curve, poor fit]; with `Cc1ccc(C(=O)NN2C(=O)/C(=C/c3cccn3C)SC2=S)cc1`, 10.3 µM [falling, partial curve, poor fit]; with `Cc1ccccc1OCc1csc(N)n1`, 35.5 µM [falling, single point]. Same read-out and setting: with `Cc1cccc2sc(N(Cc3cccnc3)C(=O)COc3ccccc3)nc12` the figure was 35.5 µM [falling, single point]; with `O=C(NCCCl)C1Cc2c(ccc3ccccc23)O1` (configuration not stated), 35.5 µM [falling, single point]. Take `O=C(N/N=C/c1c[nH]c2ccccc12)c1ccccc1Cl`: the AC50 under setting [1] was 3.98 µM [falling, partial curve, poor fit].

Take `Cc1ccc(-n2[nH]c(C)c(C=Nc3ccc(C)cn3)c2=O)cc1`: the concentration at half-maximal activity (AC50) under setting [1] was 20.6 µM [falling, single point]. As to `Cc1cc(C)c(NC(=O)NC(=O)C(Cl)(Cl)Cl)c(C)c1`, under setting [1], the AC50 was 14.1 µM [falling, partial curve]. Same read-out and setting: with `COc1ccc(-c2nc3ccccc3s2)cc1NC(C)=O` the figure was 2.24 µM [rising, full curve, poor fit] and 3.98 µM [rising, partial curve, poor fit]; with `Cc1ccc(NC(=O)N2CCC(C(=O)Nc3ccc(C)cc3C)CC2)cc1`, 32.6 µM [rising, partial curve, poor fit]; with `COC(=O)c1ccc(/C=N/NC(=O)c2ccc3nc[nH]c3c2)cc1`, 4.47 µM [falling, full curve, poor fit].

For `Cc1nn2cnnc2c(C)c1Cc1c(F)cccc1Cl`, the AC50 under setting [1] is 1.78 µM [rising, partial curve]. The same measure, in the same setting: the figure for `CCCCCc1nnc(NC(=O)C2CCCO2)s1` (configuration not stated) is 4.61 µM [rising, partial curve, poor fit].

For `O=C(O)COc1ccc(/C=C2\SC(=Nc3ccccc3)N(c3ccccc3)C2=O)cc1`, the AC50 under setting [1] was 0.398 µM [falling, full curve, poor fit].

For `CCOC(=O)C1=C(c2ccccc2)NC(SCC(N)=O)=C(C#N)C1c1cccnc1` (configuration not stated), the half-maximal activity concentration (AC50) under setting [1] was 29.1 µM [rising, single point]. Turning to `COc1cc(-c2nnc(COc3ccc4ccccc4c3)o2)cc(OC)c1OC`, the AC50 under setting [1] was 10 µM [falling, partial curve]. As to `O=C(Nc1ccn(Cc2ccccc2F)n1)c1ccc(COc2cccc(Br)c2)cc1`, the AC50 under setting [1] is 0.82 µM [rising, partial curve, poor fit]. Still for that read-out and setting: the figure for `CNC(=S)N(CCc1c(C)[nH]c2ccc(OC)cc12)Cc1ccco1` is 11.2 µM [rising, partial curve, poor fit]. For `COc1ccc2cc1Oc1ccc(cc1)C[C@H]1c3cc(c(OC)cc3CCN1C)Oc1c(O)c(OC)cc3c1[C@H](C2)N(C)CC3`, the AC50 is, setting by setting: under setting [1], 17.8 µM [falling, partial curve, poor fit]; under setting [2], 10 µM [rising, partial curve, poor fit]. Regarding `COc1ccccc1N1CCN(C(=O)C(Sc2ccccc2)c2ccccc2)CC1` (configuration not stated), the AC50 was 5.8 µM [falling, partial curve, poor fit] under setting [1] and 23.1 µM [rising, partial curve, poor fit] under setting [2].

By AC50 is commonly meant the concentration giving half of the maximal activity seen.
